Experimental findings from the supplement of paper PMC7580552 are described below.

Counter-ions that a name gives are not always drawn. Some of the results follow. Plates or batches differ in their baseline, so values are only roughly comparable.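 Biofilm, quantified by the absorbance of well-retained crystal violet, is assayed using the K-12 laboratory model grown unshaken in 96-well plates. Candidate specific biofilm inhibitors were drugs that sharply lowered staining yet reduced free-floating growth by less than 70%.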

The subject of the experiment is Escherichia coli W3110. Kind of experiment: biofilm formation (crystal violet staining) relative to untreated control; higher = more biofilm. The following applies: 10 µM; 20-24 h; 30 °C; TB.
`N[C@@H](Cc1cc(I)c(Oc2ccc(O)c(I)c2)c(I)c1)C(=O)O` [Liothyronine] showed a biofilm formation of 70%. The same measure for `Nc1c2ccccc2nc2ccccc12` [Aminacrine]: 79%; for `CN1CCC(=C2c3ccccc3Sc3ccccc32)CC1` [Pimethixene maleate]: 81%.

Take `C[C@H](CCC(=O)O)[C@H]1CC[C@H]2[C@@H]3[C@@H](O)C[C@@H]4C[C@H](O)CC[C@]4(C)[C@H]3CC[C@]12C` [Urosiol]: the biofilm formation worked out at 82%. For `C#C[C@]1(O)CC[C@H]2[C@@H]3CCC4=CCCC[C@@H]4[C@H]3CC[C@@]21C` [Lynestrenol], the biofilm formation is 47%. Turning to `O=C(CCCN1CCN(c2ccccn2)CC1)c1ccc(F)cc1` [Azaperone], the biofilm formation amounted to 112%.

Compound `NC[C@@H]1O[C@@H](O[C@H]2[C@H](O)[C@@H](O[C@H]3O[C@H](CO)[C@@H](O)[C@H](N)[C@H]3O)[C@H](N)C[C@@H]2N)[C@@H](O)[C@H](O)[C@H]1O` [Kanamycin A sulfate] gave a biofilm formation of 69%. `COC(=O)C1=C(C#N)NC(C)=C(C(=O)OC(C)C)C1c1cccc([N+](=O)[O-])c1` (stereo not drawn) [Nilvadipine] yielded a biofilm formation of 59%. The compound `CC1CC(OC(=O)c2ccccc2O)CC(C)(C)C1` (stereo not drawn) [Homosalate] had a biofilm formation of 96%.

For the compound `OCCN(CCO)c1nc(N2CCCCC2)c2nc(N(CCO)CCO)nc(N3CCCCC3)c2n1` [Dipyridamole], the biofilm formation is 77%. `CN(c1nccc(=O)[nH]1)C1CCN(c2nc3ccccc3n2Cc2ccc(F)cc2)CC1` [Mizolastine] showed a biofilm formation of 104%.

The compound `O=C(O)c1ccccc1C(=O)Nc1ccc(S(=O)(=O)Nc2nccs2)cc1` [Phthalylsulfathiazole] showed a biofilm formation of 63%. Regarding `CN1CCN(C(c2ccccc2)c2ccccc2)CC1` [Cyclizine hydrochloride], the biofilm formation came out at 106%. For `COc1cccc2c1C(=O)c1c(O)c3c(c(O)c1C2=O)C[C@@](O)(C(C)=O)C[C@@H]3O[C@H]1C[C@H](N)[C@H](O)[C@H](C)O1` [Daunorubicin hydrochloride], the biofilm formation is 56%. Next, `C=CC1=C(C(=O)O)N2C(=O)[C@@H](NC(=O)/C(=N\O)c3csc(N)n3)[C@H]2SC1` [Cefdinir]: 12%; `CC(=O)NS(=O)(=O)c1ccc(N)cc1` [Sulfacetamide sodic hydrate]: 52%; `Cc1cn([C@H]2C=C[C@@H](CO)O2)c(=O)[nH]c1=O` [Stavudine]: 75%.

For the compound `CCN(CC)CC(=O)Nc1c(C)cccc1C` [Lidocaine hydrochloride], the biofilm formation is 86%.

In turn, `c1ccc2c(CC3=NCCN3)cccc2c1` [Naphazoline hydrochloride] registered a biofilm formation of 65%. In turn, `CC(=O)OCC(=O)[C@@]12OC(C)(C)O[C@@H]1C[C@H]1[C@@H]3C[C@H](F)C4=CC(=O)C=C[C@]4(C)[C@@]3(F)[C@@H](O)C[C@@]12C` [Fluocinonide] registered a biofilm formation of 87%. Take `CO[C@@H]1[C@@H](O[C@@H]2O[C@H](C)[C@@H](O[C@H]3C[C@@](C)(O)[C@@H](OC(=O)CC(C)C)[C@H](C)O3)[C@H](N(C)C)[C@H]2O)[C@@H](CC=O)C[C@@H](C)[C@@H](O)/C=C/C=C/C[C@@H](C)OC(=O)C[C@H]1OC(C)=O` [Josamycin]: the biofilm formation turned out to be 95%. Next, `CC(=O)CC(c1ccccc1)c1c(O)c2ccccc2oc1=O` (stereo not drawn) [Warfarin]: 63%. The same measure for `CC[C@@H]1C(=O)OC[C@@H]1Cc1cncn1C` [Pilocarpine nitrate]: 78%. `NS(=O)(=O)c1cc2c(cc1C(F)(F)F)NCNS2(=O)=O` [Hydroflumethiazide] gave a biofilm formation of 68%. Next, `CC(C)NC[C@@H](O)COc1ccc(CC(N)=O)cc1` [(R)-(+)-Atenolol]: 84%. The same measure for `Cc1c(NC(=O)c2cccnc2)c(=O)n(-c2ccccc2)n1C` [Nifenazone]: 78%; for `CS(=O)(=O)OCCCCOS(C)(=O)=O` [Busulfan]: 65%. Next, `CC(=O)O[C@H]1C(=O)[C@@]2(C)[C@H]([C@H](OC(=O)c3ccccc3)[C@]3(O)C[C@H](OC(=O)[C@H](O)[C@@H](NC(=O)c4ccccc4)c4ccccc4)C(C)=C1C3(C)C)[C@]1(OC(C)=O)CO[C@@H]1C[C@@H]2O` [Paclitaxel]: 85%.

The compound `COc1cccc2c1C(=O)c1c(O)c3c(c(O)c1C2=O)C[C@@](O)(C(=O)CO)C[C@@H]3O[C@H]1C[C@H](N)[C@@H](O)[C@H](C)O1` [Epirubicin hydrochloride] showed a biofilm formation of 58%. As for `CCCN(CCC)CCc1cccc2c1CC(=O)N2` [Ropinirole hydrochloride], the biofilm formation is 77%.

As to `O=C(CCNNC(=O)c1ccncc1)NCc1ccccc1` [Nialamide], the biofilm formation was found to be 67%. The same measure for `N/C(=N\C(=O)c1nc(Cl)c(N)nc1N)NCc1ccccc1` [Benzamil hydrochloride]: 56%; for `CSc1nc2cc(Cl)c(Oc3cccc(Cl)c3Cl)cc2[nH]1` [Triclabendazole]: 63%. The same measure for `Cc1nc2ccccn2c(=O)c1CCN1CCC(C(=O)c2ccc(F)cc2)CC1` [Pirenperone]: 70%; for `NC(=O)c1cnccn1` [Pyrazinamide]: 75%. Next, `CC1(C)S[C@@H]2[C@H](NC(=O)[C@H](N)c3ccccc3)C(=O)N2[C@H]1C(=O)O` [Ampicillin trihydrate]: 5%; `O=c1n(CCCN2CCN(c3cccc(Cl)c3)CC2)nc2ccccn12` [Trazodone hydrochloride]: 62%. In turn, `COc1ccc2cc([C@H](C)C(=O)O)ccc2c1` [(S)-Naproxen] displayed a biofilm formation of 70%. The same measure for `Nc1cc(N2CCCCC2)nc(N)[n+]1[O-]` [Minoxidil]: 79%. The same measure for `C/C=C(/C(=C/C)c1ccc(O)cc1)c1ccc(O)cc1` [Dienestrol]: 87%; for `Cc1ncc([N+](=O)[O-])n1CC(C)O` (stereo not drawn) [Secnidazole]: 56%; for `O=C(O)c1ccccc1OP(=O)(O)O` [Fosfosal]: 62%. In turn, `O=C(O)c1cc(/N=N/c2ccc(S(=O)(=O)Nc3ccccn3)cc2)ccc1O` [Sulfasalazine] yielded a biofilm formation of 100%. Next, `C/C(=C\C(=O)OCCCCCCCCC(=O)O)C[C@@H]1OC[C@H](C[C@@H]2O[C@H]2[C@@H](C)[C@H](C)O)[C@@H](O)[C@H]1O` [Mupirocin]: 71%; `CCc1cccc(CC)c1NC(=O)CN(CC(=O)O)CC(=O)O` [Etifenin]: 71%. Turning to `CN/C(=N\CCSCc1nc[nH]c1C)NC#N` [Cimetidine], the biofilm formation was found to be 55%. The same measure for `CCCCc1ccc2[nH]c(NC(=O)OC)nc2c1` [Parbendazole]: 95%; for `Nc1ncnc2c1ncn2C1OC(COP(=O)(O)O)C(O)C1O` (stereo not drawn) [Adenosine 5'-monophosphate monohydrate]: 53%.

Take `C[C@@H]1C[C@H]2[C@@H]3CCC4=CC(=O)C=C[C@]4(C)[C@@]3(Cl)[C@@H](O)C[C@]2(C)[C@@]1(OC(=O)c1ccco1)C(=O)CCl` [Mometasone furoate]: the biofilm formation came out at 86%.

As to `CN1CCCN(C(c2ccccc2)c2ccc(Cl)cc2)CC1` (stereo not drawn) [Homochlorcyclizine dihydrochloride], the biofilm formation was 57%. Next, `CCOc1ccc2nc(S(N)(=O)=O)sc2c1` [Ethoxzolamide]: 74%; `Cc1c(O)c(=O)n(-c2ccccc2)n1C` [Antipyrine, 4-hydroxy]: 78%; `CC(C)OC(=O)C(C)(C)Oc1ccc(C(=O)c2ccc(Cl)cc2)cc1` [Fenofibrate]: 45%.

In turn, `CC=CC1=C(C(=O)O)N2C(=O)[C@@H](NC(=O)[C@H](N)c3ccc(O)cc3)[C@H]2SC1` [Cefprozil] had a biofilm formation of 105%. Turning to `Cc1cc2c(s1)Nc1ccccc1N=C2N1CCN(C)CC1` [Olanzapine], the biofilm formation is 84%.

`C[C@@H](O[C@H]1OCCN(Cc2n[nH]c(=O)[nH]2)[C@H]1c1ccc(F)cc1)c1cc(C(F)(F)F)cc(C(F)(F)F)c1` [Aprepitant] registered a biofilm formation of 53%.

In turn, `CN1CCCN=C1/C=C/c1cccc(O)c1` [Oxantel pamoate] gave a biofilm formation of 80%. Next, `CC(N)CCCC(C)(C)O` (stereo not drawn) [Heptaminol hydrochloride]: 56%.

The compound `Cc1ccc(NC(=O)c2ccc(CN3CCN(C)CC3)cc2)cc1Nc1nccc(-c2cccnc2)n1` [Imatinib] came in with a biofilm formation of 128%. As for `CCOC(=O)O[C@]1(C(=O)OCCl)CC[C@H]2[C@@H]3CCC4=CC(=O)C=C[C@]4(C)[C@H]3[C@@H](O)C[C@@]21C` [Loteprednol etabonate], the biofilm formation came out at 54%. Compound `Clc1ccc(C(Cn2ccnc2)OCc2ccsc2Cl)c(Cl)c1` (stereo not drawn) [Tioconazole] yielded a biofilm formation of 38%. The same measure for `CCCC1C(=O)N2C(N(C)C)=Nc3ccc(C)cc3N2C1=O` (stereo not drawn) [Azapropazone]: 79%; for `C[C@](N)(Cc1ccc(O)c(O)c1)C(=O)O` [Methyldopa (L,-)]: 61%; for `c1cnc(N2CCN(Cc3ccc4c(c3)OCO4)CC2)nc1` [Piribedil hydrochloride]: 81%. The compound `C[C@H]1c2cccc(O)c2C(=O)C2=C(O)[C@]3(O)C(=O)C(C(N)=O)=C(O)[C@@H](N(C)C)[C@@H]3[C@@H](O)[C@@H]21` [Doxycycline hydrochloride] registered a biofilm formation of 30%. Next, `C1CCC(C(CC2CCCCN2)C2CCCCC2)CC1` (stereo not drawn) [Perhexiline maleate]: 46%; `CC(C)NCC(O)COc1ccc(CCOCC2CC2)cc1` (stereo not drawn) [Betaxolol hydrochloride]: 73%; `CCc1nc(N)nc(N)c1-c1ccc(Cl)cc1` [Pyrimethamine]: 66%. Next, `CC(=O)[C@@]1(O)CC[C@H]2[C@@H]3C[C@H](C)C4=CC(=O)C=C[C@]4(C)[C@@]3(F)[C@@H](O)C[C@@]21C` [Fluorometholone]: 97%; `CCCN1CCCC[C@H]1C(=O)Nc1c(C)cccc1C` [Ropivacaine hydrochloride]: 102%; `COc1cc(C(=O)NCc2ccc(OCCN(C)C)cc2)cc(OC)c1OC` [Trimethobenzamide hydrochloride]: 96%. The same measure for `C#CCN[C@@H]1CCc2ccccc21` [Rasagiline]: 77%; for `COc1ccc(-c2cc(=S)ss2)cc1` [Anethole-trithione]: 80%.
